Reference: paper PMC6818788
Construct, isoform or probe ends are uncertain for at least one entry. For part of these data: Negatives hold for the conditions tested. For part of these data: Protein sequences can lack the tags named with them. For part of these data: Weaker means in comparison with the reference protein, sequence or condition of that experiment.

By UniProt entry, the sequences of proteins in these tests, tags left out. Where a name states a change or a piece, a line headed by the entry shows the natural chain unless it says otherwise.
UniProt P70434: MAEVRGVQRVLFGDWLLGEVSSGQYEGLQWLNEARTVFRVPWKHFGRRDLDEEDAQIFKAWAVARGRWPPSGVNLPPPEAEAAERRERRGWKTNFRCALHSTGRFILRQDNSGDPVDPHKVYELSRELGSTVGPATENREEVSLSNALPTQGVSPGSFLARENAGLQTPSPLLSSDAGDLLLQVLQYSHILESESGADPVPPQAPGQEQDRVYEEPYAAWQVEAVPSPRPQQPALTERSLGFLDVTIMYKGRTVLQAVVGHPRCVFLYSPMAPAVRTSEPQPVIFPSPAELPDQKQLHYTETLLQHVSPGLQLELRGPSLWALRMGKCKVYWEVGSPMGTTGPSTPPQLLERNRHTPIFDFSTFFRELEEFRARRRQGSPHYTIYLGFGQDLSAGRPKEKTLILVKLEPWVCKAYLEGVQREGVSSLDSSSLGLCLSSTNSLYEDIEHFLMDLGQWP

Columns and labels:
[1] = molecular target: T1, GST-IFI204 (mouse (cDNA from MHV-stimulated BMDCs)) (UniProt P0DOV2); experiment: EMSA; conditions: 400 mM Tris-HCl pH 8.0; proteins 30 min on ice, then probe 30 min at room temperature; 1% agarose gel; recombinant protein; protein details: GST (pGEX-4T-1); label: CY5
T1 sequence (looked up, limits assumed): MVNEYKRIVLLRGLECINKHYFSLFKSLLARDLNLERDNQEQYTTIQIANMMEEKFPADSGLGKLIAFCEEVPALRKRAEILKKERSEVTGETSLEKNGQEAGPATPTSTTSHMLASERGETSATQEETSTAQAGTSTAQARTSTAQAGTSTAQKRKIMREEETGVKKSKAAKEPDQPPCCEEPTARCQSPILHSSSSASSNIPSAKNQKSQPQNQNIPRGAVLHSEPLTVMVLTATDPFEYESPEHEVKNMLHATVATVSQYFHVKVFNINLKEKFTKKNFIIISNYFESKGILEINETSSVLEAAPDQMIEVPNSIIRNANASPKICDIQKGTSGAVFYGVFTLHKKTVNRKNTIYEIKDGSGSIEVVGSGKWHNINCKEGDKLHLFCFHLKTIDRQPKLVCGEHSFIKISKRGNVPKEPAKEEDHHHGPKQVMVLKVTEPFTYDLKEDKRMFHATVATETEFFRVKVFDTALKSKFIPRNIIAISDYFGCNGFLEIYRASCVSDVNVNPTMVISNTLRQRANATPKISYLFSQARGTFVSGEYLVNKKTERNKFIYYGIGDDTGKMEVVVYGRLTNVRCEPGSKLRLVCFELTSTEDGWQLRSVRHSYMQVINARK

[2] = molecular target: MBP-IRF7 (mouse (cDNA from MHV-stimulated BMDCs)) (UniProt P70434); experiment: EMSA; conditions: 400 mM Tris-HCl pH 8.0, proteins 30 min on ice, then probe 30 min at room temperature, 1% agarose gel, recombinant protein, protein details: MBP (pMAL-CX2), label: CY5

GAGAAGTGAAAGTGGAGAAGTGAAAGTGGAGAAGTGAAAGTGGAGAAGTGAAAGTG (double strand) [PRDI (IFN-beta promoter PRDI region)]
binding result [1]: no binding | binding result [2]: binds | binding result ([2]; GST-IFI204 added, dose-dependent inhibition): binds more weakly
